For assay [1], the target named is T1, 1-27 CD3-EpCAM, marmoset 27 mer (Callithrix jacchus CD3 epsilon 1-27, Flag tag, cynomolgus EpCAM) (Callithrix jacchus; cynomolgus monkey).
T1 sequence: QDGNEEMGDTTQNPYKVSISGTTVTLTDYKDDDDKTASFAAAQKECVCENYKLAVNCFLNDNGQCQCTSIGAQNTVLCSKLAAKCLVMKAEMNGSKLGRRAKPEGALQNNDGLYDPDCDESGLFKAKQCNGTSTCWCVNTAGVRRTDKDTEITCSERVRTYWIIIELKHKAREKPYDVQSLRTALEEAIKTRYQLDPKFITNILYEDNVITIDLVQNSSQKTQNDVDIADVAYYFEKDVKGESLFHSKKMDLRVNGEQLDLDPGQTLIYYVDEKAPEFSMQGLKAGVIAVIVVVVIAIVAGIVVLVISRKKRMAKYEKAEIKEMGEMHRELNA
The experiment in a line: FACS, 293-HEK transfectant. (In flow cytometry, cells or beads pass a laser one at a time.)

Assay [2] deals with T2, 1-27 CD3-EpCAM, tamarin 27 mer (Saguinus oedipus CD3 epsilon 1-27, Flag tag, cynomolgus EpCAM) (Saguinus oedipus; cynomolgus monkey).
T2 sequence: T1 sequence
Description: FACS, 293-HEK transfectant.

These are yes or no findings as the source states them, for the method shown. Some binding calls cover weakened binding; strength is not graded here. Tags and fused reporters may be left off the sequences shown.

B1: E2M HLP single-chain antibody (scFv)
scFv: EVQLLESGGGLVQPGGSLKLSCAASGFTFNGYAMNWVRQAPGKGLEWVARIRSKYNNYATYYADSVKERFTISRDDSKNTAYLQMNNLKTEDTAVYYCVRHRNFGNSYLSWFAYWGQGTLVTVSSGGGGSGGGGSGGGGSELVVTQEPSLTVSPGGTVTLTCRSSTGAVTSGYYPNWVQQKPGQAPRGLIGATDMRPSGTPARFSGSLLGGKAALTLSGVQPEDEAEYYCALWYSNRWVFGGGTKLTVL
On to B1, for which the binding entry in assay [1] and in assay [2] was “binds” throughout.
